Measurements taken from US8410045B2, “Camptothecin-peptide conjugates and pharmaceutical compositions containing the same” (Drais Pharmaceuticals, Inc., priority 2006, dated 2013).
“And” between values parts separate entries of the source, which are not always exact repeats. Equal entries are not always repeated. Where two headings read alike, the source gives them in different places. For some of these results: Not every detail of the peptide structures is certain; ends, links or a residue may be inferred. Marks after values point to notes of the source that are not given here. For some of these results: At least one read-out could not be matched to a standard name with certainty. Where a SMILES comes first, the peptide text is derived from it. The star is where a group is joined. X1 = CCc1c2c(nc3ccc(OC(=O)CCCCCN4C(=O)CC(*)C4=O)cc13)-c1cc3c(c(=O)n1C2)COC(=O)[C@]3(O)CC

Assays:
[1] = tested on: LS 174T human colorectal carcinoma tumor; assay: Antitumor efficacy in human LS 174T xenograft colon tumor model implanted in nude rats; type: in vivo; settings: Table 4; 20 (cumulative 100) μmol/kg, i.v. bolus, Q3/4Dx5
Description: The LS 174T study was performed using female nude rats (8 weeks old) purchased from Harlan breeding center (Gannat, France). LS 174T tumors were established by a subcutaneously implantation of cell (ATCC Number: CCl-188) suspensions in the right flank of the animals. The first injection of drugs was performed when the tumors reached a size of about 1000 mm^3. The tumor volume was calculated using the following formula: [length×width^2]/2.

[2] = tested on: HCT 116 human colorectal carcinoma tumor; settings: i.v. bolus, Q4Dx3
[3] = Toxicity study in the beagle dog following intravenous infusion
Description: Adult female and male beagle dogs were individually housed with free access to tap water. A pellet diet was distributed daily.
Dogs (1 dog for each drug and dose) were infused intravenously through the cephalic or saphenous vein. These intravenous infusions were made using a single-use catheter (Intraflon®) and a plastic syringe connected to a syringe pump. During the injection, the animals were restrained in a hammock.
Conjugates were dissolved in water for injection (10% of final volume) and diluted with 0.9% NaCl to their final concentration. The volume administered to each animal was adjusted according to body weight.
Clinical signs, hematological and intestinal toxicities were monitored during a period of 15 days after infusion. Each animal was checked at least twice a day for mortality or signs of morbidity.
The body weight of each animal was recorded on the day −1, 4, 10 and 13.
Peripheral blood samples were taken into EDTA tubes for the determination of following parameters on days −1, 5, 11 and 14: erythrocytes, hemoglobin, mean cell volume, packed cell volume, mean cell hemoglobin concentration, mean cell hemoglobin, thrombocytes, leucocytes, differential white cell count with cell morphology.

[4] = Table 2, each conjugate at its MAD (10-50 μmol/kg)
[5] = Table 3, 30 (cumulative 90) μmol/kg

SMILES	Minimal T/C (%) [1] [%]	TGI (%) [1]	Minimal T/C (%) [2, 4] [%]	TGI (%) [2, 4]	Minimal T/C (%) [2, 5] [%]	TGI (%) [2, 5]	MTD, times lower than for the MIC conjugate [3]
CCc1c2c(nc3ccc(OC(=O)CCCCCN4C(=O)CC(SC[C@H](N)C(=O)N[C@H](C(=O)N[C@@H](CCCCN)C(=O)N[C@@H](CCCNC(=N)N)C(=O)NCC(=O)N[C@@H](CC(C)C)C(=O)N[C@@H](CCCCN)C(=O)N[C@@H](CC(C)C)C(=O)N[C@@H](CCCNC(=N)N)C(=O)N[C@@H](Cc5c[nH]cn5)C(=O)N[C@H](C(=O)N[C@@H](CCCNC(=N)N)C(=O)N5CCC[C@H]5C(=O)N[C@@H](CCCNC(=N)N)C(=O)N[C@H](C(=O)N[C@H](C(=O)N[C@@H](CCCNC(=N)N)C(=O)N[C@@H](CCSC)C(=O)N[C@@H](CC(=O)O)C(=O)N[C@H](C(=O)O)C(C)C)[C@@H](C)O)C(C)C)C(C)C)C(C)C)C4=O)cc13)-c1cc3c(c(=O)n1C2)COC(=O)[C@]3(O)CC (stereo partly shown) [DPV1047-MIC-SN38] (H-C(X1)VKRGLKLRHVRPRVTRMDV-OH)	44	56*** %	28	62*** %	29	60% and 61*** %	
CCc1c2c(nc3ccc(OC(=O)[C@H]4CC[C@H](CNC(=O)C5CCC(CN6C(=O)CC(SC[C@H](N)C(=O)N[C@H](C(=O)N[C@@H](CCCCN)C(=O)N[C@@H](CCCNC(=N)N)C(=O)NCC(=O)N[C@@H](CC(C)C)C(=O)N[C@@H](CCCCN)C(=O)N[C@@H](CC(C)C)C(=O)N[C@@H](CCCNC(=N)N)C(=O)N[C@@H](Cc7c[nH]cn7)C(=O)N[C@H](C(=O)N[C@@H](CCCNC(=N)N)C(=O)N7CCC[C@H]7C(=O)N[C@@H](CCCNC(=N)N)C(=O)N[C@H](C(=O)N[C@H](C(=O)N[C@@H](CCCNC(=N)N)C(=O)N[C@@H](CCSC)C(=O)N[C@@H](CC(=O)O)C(=O)N[C@H](C(=O)O)C(C)C)[C@@H](C)O)C(C)C)C(C)C)C(C)C)C6=O)CC5)CC4)cc13)-c1cc3c(c(=O)n1C2)COC(=O)[C@]3(O)CC (single isomer, unassigned) [DPV1047-BCH-SN38]							approximately three
